In PubChem BioAssay AID248 (DTP/NCI, 2004):
The list is a part of this screen's results and no random one: it is rich in T/C values a quarter to a half above the control, in often repeated tests (any T/C) and in doses without a T/C. Further doses and runs are listed elsewhere. T/C: endpoint of the treated group in % of that of the vehicle group. Some doses have a count of surviving animals in place of a T/C: the source files T/C as zero there, which appears to mark a toxic dose or a test without result, not a measured value. Some doses without a T/C left all or most animals alive at the check, yet need not have been tolerated: the source hardly ever lists a survival T/C far under the control, and the zero likely stands for such cases as well. Counts of survivors are from the toxicity check (mostly the fifth day) where no day follows; animals may have died later. Schedules are NCI's codes, taken here to give the interval after Q, in days (D) or hours (H), and the number of doses after X. Some schedule codes hold Z or #, which are not explained here. Where survival is the endpoint, the PubChem record calls one and a half times the control and up active, and a quarter to a half above the control has no call in these data; cut-offs in other NCI protocols can differ. Some T/C values are followed by the survivors on the day toxicity was checked, most often the fifth; where none is given, no animal had died by that day. Some entries hold several experiments; the results are listed from low to high.

Tested on: L1210 leukemia ip in BDF1 mice, survival T/C
Test: NCI In Vivo Anticancer Drug Screen. Data for tumor model L1210 Leukemia (intraperitoneal) in B6D2F1 (BDF1) mice
Conditions: T/C endpoint: mean survival time, higher T/C = longer survival

Q: With O=NN(CCCl)C(=O)NCCCl as the molecule, how does the T/C (dose: 7.0 mg/kg/injection, schedule: Q01DX009 (ip), vehicle: saline + alcohol) read?
A: The T/C was 285, 303, 306, 314 % of control.

Q: What about the T/C (dose: 7.0 mg/kg/injection, schedule: Q07DX Z (oral), vehicle: saline) of the same molecule?
A: The T/C was 134 % of control.

Q: And the T/C (dose: 7.5 mg/kg/injection, schedule: Q01DX001 (ip), vehicle: saline, evaluated on day 5)?
A: Its T/C is 141 % of control.

Q: And the T/C (dose: 7.5 mg/kg/injection, schedule: Q01DX001 (ip), vehicle: saline, evaluated on day 60)?
A: The T/C was 141 % of control.

Q: What about the T/C (dose: 8.0 mg/kg/injection, schedule: Q01DX001 (ip), vehicle: distilled water + alcohol) of the same molecule?
A: The T/C was 147 % of control.

Q: What about the T/C (dose: 8.0 mg/kg/injection, schedule: Q01DX001 (ip), vehicle: other) of the same molecule?
A: Its T/C is 147 % of control.

Q: And the T/C (dose: 8.0 mg/kg/injection, schedule: Q01DX009 (ip), vehicle: Klucel (hydroxypropylcellulose) (HPC))?
A: The T/C was 174, 287, 289, 310 % of control.

Q: What about the T/C (dose: 8.0 mg/kg/injection, schedule: Q01DX009 (ip), vehicle: carboxymethylcellulose (CMC)) of the same molecule?
A: The T/C was 142 % of control.

Q: What about the T/C (dose: 8.0 mg/kg/injection, schedule: Q01DX009 (ip), vehicle: saline + alcohol) of the same molecule?
A: Its T/C is 123, 165, 166, 191, 279, 292, 300 % of control.

Q: And the T/C (dose: 8.0 mg/kg/injection, schedule: Q01DX009 (ip), vehicle: saline, evaluated on day 30)?
A: Its T/C is 148, 185, 202, 210, 226, 238, 246, 258, 268, 271, 285, 291, 480 % of control.

Q: What about the T/C (dose: 8.0 mg/kg/injection, schedule: Q01DX009 (ip), vehicle: saline, evaluated on day 60) of the same molecule?
A: The T/C was 286, 452, 537, 600 % of control.

Q: And the T/C (dose: 8.0 mg/kg/injection, schedule: Q04DX002 (ip), vehicle: saline + alcohol)?
A: Its T/C is 163, 174, 178, 180 % of control.

Q: What about the T/C (dose: 8.0 mg/kg/injection, schedule: Q#A X Z (oral), vehicle: saline) of the same molecule?
A: The T/C was 142 % of control.

Q: And the T/C (dose: 8.4 mg/kg/injection, schedule: Q01DX001 (ip), vehicle: saline)?
A: Its T/C is 138 % of control.

Q: And the T/C (dose: 9.75 mg/kg/injection, schedule: Q01DX001 (ip), vehicle: saline)?
A: The T/C was 138 and 149 % of control.

Q: And the T/C (dose: 10.0 mg/kg/injection, schedule: Q01DX001 (ip), vehicle: saline, evaluated on day 30)?
A: The T/C was 188 % of control.

Q: And the T/C (dose: 10.0 mg/kg/injection, schedule: Q01DX001 (ip), vehicle: saline, evaluated on day 45)?
A: Its T/C is 182 % of control.

Q: And the T/C (dose: 10.0 mg/kg/injection, schedule: Q01DX001 (ip), vehicle: saline, evaluated on day 60)?
A: The T/C was 564 % of control.

Q: What about the T/C (dose: 10.0 mg/kg/injection, schedule: Q01DX001 (ip), vehicle: saline, run until all animals had died) of the same molecule?
A: Its T/C is 166 % of control.

Q: And the T/C (dose: 10.0 mg/kg/injection, schedule: Q01DX001 (oral), vehicle: saline)?
A: Its T/C is 140 % of control.

Q: What about the T/C (dose: 10.0 mg/kg/injection, schedule: Q01DX009 (ip), vehicle: saline) of the same molecule?
A: Its T/C is 113, 173, 215, 275 % of control.

Q: What about the T/C (dose: 10.5 mg/kg/injection, schedule: Q01DX010 (ip), vehicle: saline) of the same molecule?
A: The T/C was 133 % of control.

Q: What about the T/C (dose: 11.6 mg/kg/injection, schedule: Q01DX001 (ip), vehicle: saline) of the same molecule?
A: Its T/C is 126 % of control.

Q: And the T/C (dose: 12.0 mg/kg/injection, schedule: Q01DX001 (oral), vehicle: saline)?
A: Its T/C is 149 % of control.

Q: And the T/C (dose: 12.0 mg/kg/injection, schedule: Q01DX006 (ip), vehicle: saline, evaluated on day 8)?
A: Its T/C is 131 % of control.

Q: What about the T/C (dose: 12.0 mg/kg/injection, schedule: Q01DX006 (ip), vehicle: saline, evaluated on day 32) of the same molecule?
A: The T/C was 131 % of control.

Q: And the T/C (dose: 12.0 mg/kg/injection, schedule: Q01DX Z (ip), vehicle: saline)?
A: Its T/C is 149 % of control.

Q: What about the survivor count (dose: 12.0 mg/kg/injection, schedule: Q## X Z (ip), vehicle: saline) of the same molecule?
A: The survivor count was 9 of 10.

Q: What about the T/C (dose: 13.0 mg/kg/injection, schedule: Q01DX001 (ip), vehicle: saline + alcohol) of the same molecule?
A: Its T/C is 143 % of control.

Q: What about the T/C (dose: 14.0 mg/kg/injection, schedule: Q01DX009 (ip), vehicle: saline + alcohol) of the same molecule?
A: Its T/C is 113, 120, 121, 150 % of control.

Q: What about the T/C (dose: 14.0 mg/kg/injection, schedule: Q01DX Z (ip), vehicle: carboxymethylcellulose (CMC)) of the same molecule?
A: Its T/C is 147 % of control.

Q: And the T/C (dose: 14.0 mg/kg/injection, schedule: Q12DX003 (ip), vehicle: saline)?
A: Its T/C is 141 % of control.

Q: And the T/C (dose: 14.0 mg/kg/injection, schedule: Q14DX003 (ip), vehicle: saline)?
A: The T/C was 145 % of control.

Q: And the T/C (dose: 15.0 mg/kg/injection, schedule: Q01DX001 (ip), vehicle: saline, evaluated on day 5)?
A: Its T/C is 252 % of control.

Q: What about the T/C (dose: 15.0 mg/kg/injection, schedule: Q01DX001 (ip), vehicle: saline, evaluated on day 30) of the same molecule?
A: Its T/C is 175 and 255 % of control.

Q: What about the T/C (dose: 15.0 mg/kg/injection, schedule: Q01DX001 (ip), vehicle: saline, evaluated on day 45) of the same molecule?
A: Its T/C is 265 % of control.

Q: What about the T/C (dose: 15.0 mg/kg/injection, schedule: Q01DX001 (ip), vehicle: saline, evaluated on day 60) of the same molecule?
A: Its T/C is 252 % of control.

Q: What about the T/C (dose: 16.0 mg/kg/injection, schedule: Q01DX009 (ip), vehicle: Klucel (hydroxypropylcellulose) (HPC)) of the same molecule?
A: The T/C was 106, 117, 119, 120 % of control.

Q: And the T/C (dose: 16.0 mg/kg/injection, schedule: Q01DX009 (ip), vehicle: saline + alcohol)?
A: Its T/C is 94, 96, 107, 108, 116, 121, 137 % of control.

Q: What about the T/C (dose: 16.0 mg/kg/injection, schedule: Q01DX009 (ip), vehicle: saline, evaluated on day 30) of the same molecule?
A: The T/C was 109, 113, 117, 121 [5 of 6 alive], 125, 126, 126 [5 of 6 alive], 128, 131, 135, 148, 155, 326 % of control.

Q: What about the T/C (dose: 16.0 mg/kg/injection, schedule: Q01DX009 (ip), vehicle: saline, evaluated on day 60) of the same molecule?
A: Its T/C is 125, 126, 133, 138 % of control.

Q: What about the T/C (dose: 16.0 mg/kg/injection, schedule: Q04DX002 (ip), vehicle: saline + alcohol) of the same molecule?
A: Its T/C is 200, 222, 259, 303 % of control.

Q: And the T/C (dose: 16.0 mg/kg/injection, schedule: Q#A X Z (oral), vehicle: saline)?
A: The T/C was 131 % of control.

Q: What about the T/C (dose: 18.0 mg/kg/injection, schedule: Q01DX001 (ip), vehicle: clinical formulation) of the same molecule?
A: The T/C was 190, 265, 269, 362 % of control.

Q: What about the T/C (dose: 20.0 mg/kg/injection, schedule: Q01DX001 (ip), vehicle: saline + alcohol, evaluated on day 5) of the same molecule?
A: The T/C was 249, 255, 378 % of control.

Q: What about the T/C (dose: 20.0 mg/kg/injection, schedule: Q01DX001 (ip), vehicle: saline + alcohol, evaluated on day 45) of the same molecule?
A: The T/C was 230 and 368 % of control.

Q: What about the T/C (dose: 20.0 mg/kg/injection, schedule: Q01DX001 (ip), vehicle: saline + alcohol, evaluated on day 60) of the same molecule?
A: The T/C was 272 and 465 % of control.

Q: What about the T/C (dose: 20.0 mg/kg/injection, schedule: Q01DX001 (ip), vehicle: saline, evaluated on day 30) of the same molecule?
A: Its T/C is 256 % of control.
